# Experimental data: the supplement of paper PMC8728848
# This is one part of the list.
# What was measured:
# Test in all cases: glycan array binding signal (z-score within array); higher = stronger binding
# Conditions in all cases: glycan notation: IUPAC condensed, linker removed
# Gal3S(b1-4)Glc = biological target: Gal3S(b1-4)Glc
# In short: (§1)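 Glycan array data were curated from 3228 arrays in the Consortium for Functional Glycomics database and kept only where the protein sequence was available. Glycan names were converted to IUPAC-condensed notation, and columns mapping to the same glycan were averaged. The binding signal is a within-array Z-score, averaged across arrays of the same protein sequence at different concentrations or buffers and across linkers. Negative Z-scores can be read as non-binding.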
# Gal3S(b1-4)Glc6S = biological target: Gal3S(b1-4)Glc6S
# In short: as §1
# Gal3S(b1-4)GlcNAc = biological target: Gal3S(b1-4)GlcNAc
# In short: as §1
# [1] = biological target: Gal3S(b1-4)[Fuc(a1-3)]Glc6S
# In short: as §1
# [2] = biological target: Gal3S(b1-4)[Fuc(a1-3)]GlcNAc
# In short: as §1
# [3] = biological target: Gal3S(b1-4)[Fuc(a1-3)]GlcNAc6S
# In short: as §1
# Gal3S4S(b1-4)GlcNAc = biological target: Gal3S4S(b1-4)GlcNAc
# In short: as §1
# Gal3S6S(b1-4)GlcNAc = biological target: Gal3S6S(b1-4)GlcNAc
# In short: as §1
# Gal3S6S(b1-4)GlcNAc6S = biological target: Gal3S6S(b1-4)GlcNAc6S
# In short: as §1
# Gal4S(b1-4)GlcNAc = biological target: Gal4S(b1-4)GlcNAc
# In short: as §1
# Gal4S6S(b1-4)GlcNAc = biological target: Gal4S6S(b1-4)GlcNAc
# In short: as §1
# Gal6P(b1-4)GlcNAc = biological target: Gal6P(b1-4)GlcNAc
# In short: as §1
# Gal6S(b1-3)GlcNAc = biological target: Gal6S(b1-3)GlcNAc
# In short: as §1
# Gal6S(b1-3)GlcNAc6S = biological target: Gal6S(b1-3)GlcNAc6S
# In short: as §1
# Gal6S(b1-4)Glc = biological target: Gal6S(b1-4)Glc
# In short: as §1
# Gal6S(b1-4)Glc6S = biological target: Gal6S(b1-4)Glc6S
# In short: as §1
# Gal6S(b1-4)GlcNAc = biological target: Gal6S(b1-4)GlcNAc
# In short: as §1
# Gal6S(b1-4)GlcNAc6S = biological target: Gal6S(b1-4)GlcNAc6S
# In short: as §1
# GalNAc(a1-3)Gal = biological target: GalNAc(a1-3)Gal
# In short: as §1
# GalNAc(a1-3)GalNAc = biological target: GalNAc(a1-3)GalNAc
# In short: as §1
# [4] = biological target: GalNAc(a1-3)GalNAc(b1-3)Gal(a1-4)Gal(b1-4)Glc
# In short: as §1
# [5] = biological target: GalNAc(a1-3)GalNAc(b1-3)Gal(a1-4)Gal(b1-4)GlcNAc
# In short: as §1
# GalNAc(b1-3)Gal = biological target: GalNAc(b1-3)Gal
# In short: as §1
# [6] = biological target: GalNAc(b1-3)Gal(a1-4)Gal(b1-4)GlcNAc
# In short: as §1
# [7] = biological target: GalNAc(b1-3)Gal(a1-4)Gal(b1-4)GlcNAc(b1-3)Gal(b1-4)Glc
# In short: as §1
# [8] = biological target: GalNAc(b1-3)Gal(a1-6)Gal(b1-4)Glc
# In short: as §1
# GalNAc(b1-3)GalNAc = biological target: GalNAc(b1-3)GalNAc
# In short: as §1
# GalNAc(b1-3)GlcNAc = biological target: GalNAc(b1-3)GlcNAc
# In short: as §1
# GalNAc(b1-4)Gal(b1-4)Glc = biological target: GalNAc(b1-4)Gal(b1-4)Glc
# In short: as §1
# GalNAc(b1-4)GlcNAc = biological target: GalNAc(b1-4)GlcNAc
# In short: as §1
# [9] = biological target: GalNAc(b1-4)GlcNAc(b1-2)Man
# In short: as §1
# [10] = biological target: GalNAc(b1-4)GlcNAc(b1-2)Man(a1-3)[GalNAc(b1-4)GlcNAc(b1-2)Man(a1-6)]Man(b1-4)GlcNAc(b1-4)GlcNAc
# In short: as §1
# [11] = biological target: GalNAc(b1-4)GlcNAc(b1-3)GalNAc(b1-4)GlcNAc
# In short: as §1
# GalNAc(b1-4)GlcNAc6S = biological target: GalNAc(b1-4)GlcNAc6S
# In short: as §1
# GalNAc(b1-6)GalNAc = biological target: GalNAc(b1-6)GalNAc
# In short: as §1
# GalNAc3S(b1-4)GlcNAc = biological target: GalNAc3S(b1-4)GlcNAc
# In short: as §1
# GalNAc3S(b1-4)GlcNAc3S = biological target: GalNAc3S(b1-4)GlcNAc3S
# In short: as §1
# [12] = biological target: GalNAc3S(b1-4)[Fuc(a1-3)]GlcNAc
# In short: as §1
# GalNAc4S6S(b1-4)GlcNAc = biological target: GalNAc4S6S(b1-4)GlcNAc
# In short: as §1
# GalNAc6S(b1-4)GlcNAc = biological target: GalNAc6S(b1-4)GlcNAc
# In short: as §1
# Glc(a1-4)Glc = biological target: Glc(a1-4)Glc
# In short: as §1
# [13] = biological target: Glc(a1-4)Glc(a1-4)Glc(a1-4)Glc
# In short: as §1
# Glc(a1-6)Glc(a1-6)Glc = biological target: Glc(a1-6)Glc(a1-6)Glc
# In short: as §1
# [14] = biological target: Glc(a1-6)Glc(a1-6)Glc(a1-6)Glc
# In short: as §1
# Glc(b1-4)Glc = biological target: Glc(b1-4)Glc
# In short: as §1
binder,measurement,setting,value
EUL D1A first (Oryza sativa) (protein) MFGFGHHHNQAPAAPSDPNQIFKIFCRANENYCLTVRDSAVVLAPVNPKDEHQHWFKDMRFSTKVKDGEGMPAFALVNKATGLAVKHSLGQSHPVKLVPFNPEYEDASVLWTESKDVGKGFRCIRMVNNTRLNLDAFHGDKDHGGVRDGTTVVLWEWCKGDNQSWKILPWGPEAHSSSPGAATILEQKLISEEDLNSAVDHHHHHH,glycan array binding signal (z-score),Gal3S(b1-4)Glc,-1.36
same,glycan array binding signal (z-score),Gal3S(b1-4)Glc6S,-0.679
same,glycan array binding signal (z-score),Gal3S(b1-4)GlcNAc,0.472
same,glycan array binding signal (z-score),[1],1.7
same,glycan array binding signal (z-score),[2],1.36
same,glycan array binding signal (z-score),[3],0.475
same,glycan array binding signal (z-score),Gal3S4S(b1-4)GlcNAc,-0.601
same,glycan array binding signal (z-score),Gal3S6S(b1-4)GlcNAc,-0.617
same,glycan array binding signal (z-score),Gal3S6S(b1-4)GlcNAc6S,1.45
same,glycan array binding signal (z-score),Gal4S(b1-4)GlcNAc,1.01
same,glycan array binding signal (z-score),Gal4S6S(b1-4)GlcNAc,0.533
same,glycan array binding signal (z-score),Gal6P(b1-4)GlcNAc,-1.29
same,glycan array binding signal (z-score),Gal6S(b1-3)GlcNAc,0.391
same,glycan array binding signal (z-score),Gal6S(b1-3)GlcNAc6S,-1.84
same,glycan array binding signal (z-score),Gal6S(b1-4)Glc,0.973
same,glycan array binding signal (z-score),Gal6S(b1-4)Glc6S,-0.058
same,glycan array binding signal (z-score),Gal6S(b1-4)GlcNAc,0.227
same,glycan array binding signal (z-score),Gal6S(b1-4)GlcNAc6S,0.373
same,glycan array binding signal (z-score),GalNAc(a1-3)Gal,-0.631
same,glycan array binding signal (z-score),GalNAc(a1-3)GalNAc,0.168
same,glycan array binding signal (z-score),[4],-0.059
same,glycan array binding signal (z-score),[5],-0.615
same,glycan array binding signal (z-score),GalNAc(b1-3)Gal,0.675
same,glycan array binding signal (z-score),[6],-0.473
same,glycan array binding signal (z-score),[7],-0.117
same,glycan array binding signal (z-score),[8],-2.32
same,glycan array binding signal (z-score),GalNAc(b1-3)GalNAc,-1.26
same,glycan array binding signal (z-score),GalNAc(b1-3)GlcNAc,-1.3
same,glycan array binding signal (z-score),GalNAc(b1-4)Gal(b1-4)Glc,0.119
same,glycan array binding signal (z-score),GalNAc(b1-4)GlcNAc,1.25
same,glycan array binding signal (z-score),[9],-0.904
same,glycan array binding signal (z-score),[10],0.234
same,glycan array binding signal (z-score),[11],-1.38
same,glycan array binding signal (z-score),GalNAc(b1-4)GlcNAc6S,-0.411
same,glycan array binding signal (z-score),GalNAc(b1-6)GalNAc,0.517
same,glycan array binding signal (z-score),GalNAc3S(b1-4)GlcNAc,-0.401
same,glycan array binding signal (z-score),GalNAc3S(b1-4)GlcNAc3S,-0.185
same,glycan array binding signal (z-score),[12],-0.619
same,glycan array binding signal (z-score),GalNAc4S6S(b1-4)GlcNAc,0.534
same,glycan array binding signal (z-score),GalNAc6S(b1-4)GlcNAc,2.02
same,glycan array binding signal (z-score),Glc(a1-4)Glc,0.013
same,glycan array binding signal (z-score),[13],-0.087
same,glycan array binding signal (z-score),Glc(a1-6)Glc(a1-6)Glc,0.663
same,glycan array binding signal (z-score),[14],0.057
same,glycan array binding signal (z-score),Glc(b1-4)Glc,-0.804

# Retrieved one by one from above:
binder,measurement,setting,value
EUL D1A first (Oryza sativa) (protein) MFGFGHHHNQAPAAPSDPNQIFKIFCRANENYCLTVRDSAVVLAPVNPKDEHQHWFKDMRFSTKVKDGEGMPAFALVNKATGLAVKHSLGQSHPVKLVPFNPEYEDASVLWTESKDVGKGFRCIRMVNNTRLNLDAFHGDKDHGGVRDGTTVVLWEWCKGDNQSWKILPWGPEAHSSSPGAATILEQKLISEEDLNSAVDHHHHHH,glycan array binding signal (z-score),Gal3S(b1-4)Glc,-1.36
same,glycan array binding signal (z-score),GalNAc(a1-3)GalNAc,0.168
same,glycan array binding signal (z-score),Gal6S(b1-4)GlcNAc6S,0.373
